{
  "source": "paper PMC7862700",
  "note": "Only a part is listed here, and it is no random draw. At the low end of the ranking the order means little.",
  "data": [
    {"target": "T1, ELF3 (UniProt P78545)", "T1 sequence": "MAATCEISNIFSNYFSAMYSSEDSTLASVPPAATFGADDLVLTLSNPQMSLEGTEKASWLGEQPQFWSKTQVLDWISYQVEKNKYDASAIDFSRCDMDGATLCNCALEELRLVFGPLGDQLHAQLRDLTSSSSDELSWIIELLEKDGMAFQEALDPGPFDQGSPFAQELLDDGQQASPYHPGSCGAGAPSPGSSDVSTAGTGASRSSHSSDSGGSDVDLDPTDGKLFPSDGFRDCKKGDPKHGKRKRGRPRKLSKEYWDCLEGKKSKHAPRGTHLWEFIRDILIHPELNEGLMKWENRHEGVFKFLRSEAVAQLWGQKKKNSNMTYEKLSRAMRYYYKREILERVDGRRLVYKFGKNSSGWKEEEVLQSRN", "assay": "DAPPL (digital affinity profiling via proximity ligation, sequencing)", "settings": "10 mM Tris-HCl pH 7.5, 50 mM NaCl, 1 mM DTT, 4% glycerol, room temperature, 30 min; GST-TFs on glutathione beads, 16-mer random dsDNA library, 0.1% …; high values mean tight binding; double strand, one strand shown; scale: fold enrichment (6-mer frequency, TF over GST control)", "values": [
      {"sequence": "ACTGGC", "binding signal": 1.1},
      {"sequence": "GCGATG", "binding signal": 1.26},
      {"sequence": "CCCGCC", "binding signal": 1.45},
      {"sequence": "CGAAAA", "binding signal": 1.01},
      {"sequence": "AATAAC", "binding signal": 1.25},
      {"sequence": "ATCCGC", "binding signal": 1.62},
      {"sequence": "CCTACG", "binding signal": 1.5},
      {"sequence": "TGCTGC", "binding signal": 1.11},
      {"sequence": "TGAATT", "binding signal": 1.12},
      {"sequence": "CTAATC", "binding signal": 1.56},
      {"sequence": "GAAGCA", "binding signal": 1.27},
      {"sequence": "CTTTCT", "binding signal": 1.73},
      {"sequence": "AAAAGT", "binding signal": 1.12},
      {"sequence": "TATTCA", "binding signal": 1.31},
      {"sequence": "GTACAT", "binding signal": 1.28},
      {"sequence": "AATCAA", "binding signal": 1.24},
      {"sequence": "AAGTAC", "binding signal": 1.68},
      {"sequence": "ACCGGA", "binding signal": 3.15},
      {"sequence": "TTCAAG", "binding signal": 1.23},
      {"sequence": "TAATGC", "binding signal": 1.23},
      {"sequence": "CCCTGG", "binding signal": 1},
      {"sequence": "CTCGTG", "binding signal": 0.988},
      {"sequence": "ATCTAC", "binding signal": 1.33},
      {"sequence": "AACGAC", "binding signal": 1.02},
      {"sequence": "TGACTC", "binding signal": 1.36},
      {"sequence": "TAATGA", "binding signal": 1.12},
      {"sequence": "TCTGCC", "binding signal": 1.28},
      {"sequence": "GTCACA", "binding signal": 1.08},
      {"sequence": "CGTTCA", "binding signal": 1.13},
      {"sequence": "TATGGA", "binding signal": 1.15},
      {"sequence": "ACTCCT", "binding signal": 1.3},
      {"sequence": "CAGCTT", "binding signal": 1.19},
      {"sequence": "TAACTC", "binding signal": 0.964},
      {"sequence": "TTTACT", "binding signal": 1.65},
      {"sequence": "GCTATT", "binding signal": 1.45},
      {"sequence": "CTGTTT", "binding signal": 1.14},
      {"sequence": "TAAACG", "binding signal": 1.07},
      {"sequence": "CTAAGA", "binding signal": 1.24},
      {"sequence": "CTCCTA", "binding signal": 1.31}
    ]}
  ]
}
